PubChem BioAssay AID504774 – Drosophila RNAi Screening Center – 2011

Purpose: 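Knock-downs that shift viability of MMS-exposed cells relative to untreated ones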 (primary screen)
Cell system: Drosophila Kc167 cells
Reagents: long dsRNA against Drosophila genes, about 0.25 µg dsRNA per well
Timing: about 6 days: 3 days knock-down, then 3 days with or without MMS
Challenge: methyl methanesulphonate 0.004% (w/v) for 3 days after knock-down
Read-out: 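Viability in wells given MMS, read as ATP luminescence, normalised by quantiles plate by plate and averaged across replicates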
Scale: mean viability with MMS: higher = more surviving cells after MMS
The deposit covers about 23,000 reagents; below is a random part of those with a known target gene and a result. 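Values are quantile-normalised luminescence on an arbitrary scale; higher means more cells surviving MMS.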 The numbers tell different reagents against one gene apart. Names joined by + are all predicted targets of the reagent. Further read-outs or replicates are left out here.

| target gene | reagent | mean viability with MMS |
| --- | --- | --- |
| gem (gemini) | 1 | 3.83e6 |
| gem (gemini) | 2 | 3.49e6 |
| Panx (Panoramix) | 1 | 3.60e6 |
| CG6908 | 1 | 3.49e6 |
| CG5162 | 1 | 3.44e6 |
| Ccdc58 + CG34116 | 1 | 3.54e6 |
| CG10195 | 1 | 3.59e6 |
| Tet (Ten-Eleven Translocation (TET) family protein) | 1 | 3.25e6 |
| osy (oskyddad) | 1 | 3.34e6 |
| osy (oskyddad) | 2 | 3.36e6 |
| osy (oskyddad) | 3 | 3.45e6 |
| CG9616 | 1 | 3.40e6 |
| CG12605 | 1 | 3.46e6 |
| Rbbp5 + CG6434 (retired record) | 1 | 3.66e6 |
| CG14511 | 1 | 3.46e6 |
| SerRS (Seryl-tRNA synthetase) | 1 | 3.44e6 |
| CG34452 | 1 | 3.54e6 |
| CG12934 | 1 | 3.31e6 |
| Cep97 (Centrosomal protein 97kDa) | 1 | 3.58e6 |
| Ube4A (Ubiquitination factor E4A) | 1 | 3.44e6 |
| KrT95D (Krueppel target at 95D) | 1 | 3.39e6 |
| deltaCOP (Coat Protein (coatomer) delta) | 1 | 3.42e6 |
| CG13043 | 1 | 3.46e6 |
| RpLP1 (Ribosomal protein LP1) | 1 | 3.30e6 |
| RpLP1 (Ribosomal protein LP1) | 2 | 2.75e6 |
| PK1-R (Pyrokinin 1 receptor) | 1 | 3.77e6 |
| Ilp7 (Insulin-like peptide 7) | 1 | 3.59e6 |
| Ubr3 (Ubr3 ubiquitin ligase) | 1 | 3.50e6 |
| Ubr3 (Ubr3 ubiquitin ligase) | 2 | 3.56e6 |

Not a retest: 4 of the entries above.
| target gene | reagent | mean viability with MMS |
| --- | --- | --- |
| osy (oskyddad) | 3 | 3.45e6 |
| CG9616 | 1 | 3.40e6 |
| CG12605 | 1 | 3.46e6 |
| Rbbp5 + CG6434 (retired record) | 1 | 3.66e6 |
